From the supplement of paper PMC10849652
Some of the results follow.

The chains behind the UniProt entries cited, without tags or fusion partners. Where a name states a change or a piece, a line headed by the entry shows the natural chain unless it says otherwise.
UniProt Q9Y548: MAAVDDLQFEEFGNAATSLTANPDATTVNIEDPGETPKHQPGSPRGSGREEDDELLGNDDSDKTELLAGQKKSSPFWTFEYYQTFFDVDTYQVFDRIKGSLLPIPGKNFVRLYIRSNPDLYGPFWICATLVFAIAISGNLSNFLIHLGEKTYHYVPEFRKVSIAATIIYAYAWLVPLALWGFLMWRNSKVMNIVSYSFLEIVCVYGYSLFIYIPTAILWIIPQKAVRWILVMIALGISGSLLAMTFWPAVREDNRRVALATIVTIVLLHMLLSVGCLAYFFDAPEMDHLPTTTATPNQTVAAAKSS
UniProt Q9UIJ5: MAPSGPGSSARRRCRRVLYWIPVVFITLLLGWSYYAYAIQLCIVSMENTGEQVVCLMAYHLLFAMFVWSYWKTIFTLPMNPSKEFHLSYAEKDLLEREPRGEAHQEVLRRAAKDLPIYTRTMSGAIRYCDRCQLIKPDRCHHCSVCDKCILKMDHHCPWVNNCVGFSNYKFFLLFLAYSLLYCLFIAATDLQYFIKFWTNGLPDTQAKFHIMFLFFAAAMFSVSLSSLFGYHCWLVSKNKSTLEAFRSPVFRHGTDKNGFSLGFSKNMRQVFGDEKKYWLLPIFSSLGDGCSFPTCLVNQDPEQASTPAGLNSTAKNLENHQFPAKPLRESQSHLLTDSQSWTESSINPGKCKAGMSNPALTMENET
UniProt Q8IZH2: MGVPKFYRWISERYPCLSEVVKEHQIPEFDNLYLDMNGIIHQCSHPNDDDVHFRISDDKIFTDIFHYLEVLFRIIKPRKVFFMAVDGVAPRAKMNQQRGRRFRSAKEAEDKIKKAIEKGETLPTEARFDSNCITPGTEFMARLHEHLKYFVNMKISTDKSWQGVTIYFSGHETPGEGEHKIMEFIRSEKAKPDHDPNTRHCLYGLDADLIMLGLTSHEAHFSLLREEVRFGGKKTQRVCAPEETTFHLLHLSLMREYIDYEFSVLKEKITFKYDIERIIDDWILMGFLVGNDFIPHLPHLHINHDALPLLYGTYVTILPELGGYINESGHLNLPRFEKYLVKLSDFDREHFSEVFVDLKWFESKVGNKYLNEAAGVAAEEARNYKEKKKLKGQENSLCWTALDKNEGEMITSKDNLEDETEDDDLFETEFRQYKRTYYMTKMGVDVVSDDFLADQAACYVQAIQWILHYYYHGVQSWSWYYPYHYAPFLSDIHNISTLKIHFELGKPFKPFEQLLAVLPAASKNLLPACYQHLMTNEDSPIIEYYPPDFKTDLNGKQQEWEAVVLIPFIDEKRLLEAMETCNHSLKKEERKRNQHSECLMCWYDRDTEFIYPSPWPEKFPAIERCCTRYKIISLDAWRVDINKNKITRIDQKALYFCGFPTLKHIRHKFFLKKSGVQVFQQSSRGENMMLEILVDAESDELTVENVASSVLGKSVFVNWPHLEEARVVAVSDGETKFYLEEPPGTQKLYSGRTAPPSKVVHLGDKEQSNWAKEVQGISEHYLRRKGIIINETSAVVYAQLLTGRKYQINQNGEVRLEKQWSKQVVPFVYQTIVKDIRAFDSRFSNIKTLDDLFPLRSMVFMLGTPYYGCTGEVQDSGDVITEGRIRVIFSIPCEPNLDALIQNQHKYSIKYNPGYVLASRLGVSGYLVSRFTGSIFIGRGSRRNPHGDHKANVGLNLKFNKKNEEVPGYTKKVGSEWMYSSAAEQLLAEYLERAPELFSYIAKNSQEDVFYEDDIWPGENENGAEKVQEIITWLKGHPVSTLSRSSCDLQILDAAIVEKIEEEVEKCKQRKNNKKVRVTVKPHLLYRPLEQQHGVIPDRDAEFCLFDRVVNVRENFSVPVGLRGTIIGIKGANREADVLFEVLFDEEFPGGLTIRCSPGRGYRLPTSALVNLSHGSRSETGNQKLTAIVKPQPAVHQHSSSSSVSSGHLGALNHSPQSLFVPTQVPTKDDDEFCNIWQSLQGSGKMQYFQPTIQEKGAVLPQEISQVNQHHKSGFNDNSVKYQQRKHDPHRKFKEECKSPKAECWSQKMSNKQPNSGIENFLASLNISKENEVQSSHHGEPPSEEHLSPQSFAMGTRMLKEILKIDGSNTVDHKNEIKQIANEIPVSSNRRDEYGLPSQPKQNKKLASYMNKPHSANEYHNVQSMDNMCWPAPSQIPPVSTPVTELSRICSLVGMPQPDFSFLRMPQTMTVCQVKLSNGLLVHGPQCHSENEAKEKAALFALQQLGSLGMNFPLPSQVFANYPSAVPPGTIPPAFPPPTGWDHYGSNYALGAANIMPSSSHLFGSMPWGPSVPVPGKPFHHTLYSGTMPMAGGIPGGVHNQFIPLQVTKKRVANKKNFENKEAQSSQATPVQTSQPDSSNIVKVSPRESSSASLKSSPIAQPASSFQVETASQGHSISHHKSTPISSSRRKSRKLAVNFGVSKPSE
UniProt Q9H2Y7: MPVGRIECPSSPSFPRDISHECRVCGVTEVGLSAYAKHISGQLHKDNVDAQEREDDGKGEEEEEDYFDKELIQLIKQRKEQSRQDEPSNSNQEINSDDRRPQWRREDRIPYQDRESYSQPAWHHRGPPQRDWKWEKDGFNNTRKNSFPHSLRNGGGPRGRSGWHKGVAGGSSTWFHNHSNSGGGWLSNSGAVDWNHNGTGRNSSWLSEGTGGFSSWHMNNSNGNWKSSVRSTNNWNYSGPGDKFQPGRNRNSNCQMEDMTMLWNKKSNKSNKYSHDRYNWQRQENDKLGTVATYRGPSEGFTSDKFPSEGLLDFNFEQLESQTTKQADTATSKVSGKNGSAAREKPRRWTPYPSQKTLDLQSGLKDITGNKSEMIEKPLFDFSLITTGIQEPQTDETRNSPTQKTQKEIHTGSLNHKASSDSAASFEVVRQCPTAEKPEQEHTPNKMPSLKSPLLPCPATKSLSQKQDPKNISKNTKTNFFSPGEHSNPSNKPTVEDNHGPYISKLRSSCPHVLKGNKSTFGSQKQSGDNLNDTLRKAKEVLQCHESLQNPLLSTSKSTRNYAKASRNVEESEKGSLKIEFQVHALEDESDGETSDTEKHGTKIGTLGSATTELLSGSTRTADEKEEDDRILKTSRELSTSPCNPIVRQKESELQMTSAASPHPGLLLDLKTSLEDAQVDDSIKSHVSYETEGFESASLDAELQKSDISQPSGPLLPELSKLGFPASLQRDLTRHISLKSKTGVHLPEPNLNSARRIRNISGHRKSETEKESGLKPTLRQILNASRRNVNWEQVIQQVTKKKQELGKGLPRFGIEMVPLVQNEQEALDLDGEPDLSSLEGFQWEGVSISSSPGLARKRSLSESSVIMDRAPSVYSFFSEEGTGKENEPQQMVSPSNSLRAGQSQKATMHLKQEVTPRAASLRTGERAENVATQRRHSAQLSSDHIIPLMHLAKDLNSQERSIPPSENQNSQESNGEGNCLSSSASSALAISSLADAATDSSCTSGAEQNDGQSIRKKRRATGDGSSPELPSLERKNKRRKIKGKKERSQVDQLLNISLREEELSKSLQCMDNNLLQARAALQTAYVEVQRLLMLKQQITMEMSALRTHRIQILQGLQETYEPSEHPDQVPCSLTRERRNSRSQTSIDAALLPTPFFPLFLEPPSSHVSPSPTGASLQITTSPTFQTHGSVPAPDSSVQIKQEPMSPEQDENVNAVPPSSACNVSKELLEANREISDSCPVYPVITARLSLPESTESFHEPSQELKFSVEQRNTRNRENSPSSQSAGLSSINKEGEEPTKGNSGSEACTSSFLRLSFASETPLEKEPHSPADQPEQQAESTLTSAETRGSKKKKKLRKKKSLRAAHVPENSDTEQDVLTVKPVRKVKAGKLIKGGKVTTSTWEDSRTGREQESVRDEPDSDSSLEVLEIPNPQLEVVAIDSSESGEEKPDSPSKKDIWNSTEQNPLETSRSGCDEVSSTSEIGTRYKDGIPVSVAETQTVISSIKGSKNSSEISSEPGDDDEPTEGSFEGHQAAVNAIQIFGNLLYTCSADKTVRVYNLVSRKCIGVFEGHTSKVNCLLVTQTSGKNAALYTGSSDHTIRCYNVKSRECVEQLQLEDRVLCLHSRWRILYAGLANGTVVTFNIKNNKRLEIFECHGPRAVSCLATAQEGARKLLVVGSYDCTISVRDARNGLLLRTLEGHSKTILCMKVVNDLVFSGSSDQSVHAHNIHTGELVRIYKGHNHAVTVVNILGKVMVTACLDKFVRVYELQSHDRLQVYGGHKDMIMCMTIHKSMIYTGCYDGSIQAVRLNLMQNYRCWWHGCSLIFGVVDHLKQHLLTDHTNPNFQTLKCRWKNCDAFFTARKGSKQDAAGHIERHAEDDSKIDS
UniProt Q9H6S0: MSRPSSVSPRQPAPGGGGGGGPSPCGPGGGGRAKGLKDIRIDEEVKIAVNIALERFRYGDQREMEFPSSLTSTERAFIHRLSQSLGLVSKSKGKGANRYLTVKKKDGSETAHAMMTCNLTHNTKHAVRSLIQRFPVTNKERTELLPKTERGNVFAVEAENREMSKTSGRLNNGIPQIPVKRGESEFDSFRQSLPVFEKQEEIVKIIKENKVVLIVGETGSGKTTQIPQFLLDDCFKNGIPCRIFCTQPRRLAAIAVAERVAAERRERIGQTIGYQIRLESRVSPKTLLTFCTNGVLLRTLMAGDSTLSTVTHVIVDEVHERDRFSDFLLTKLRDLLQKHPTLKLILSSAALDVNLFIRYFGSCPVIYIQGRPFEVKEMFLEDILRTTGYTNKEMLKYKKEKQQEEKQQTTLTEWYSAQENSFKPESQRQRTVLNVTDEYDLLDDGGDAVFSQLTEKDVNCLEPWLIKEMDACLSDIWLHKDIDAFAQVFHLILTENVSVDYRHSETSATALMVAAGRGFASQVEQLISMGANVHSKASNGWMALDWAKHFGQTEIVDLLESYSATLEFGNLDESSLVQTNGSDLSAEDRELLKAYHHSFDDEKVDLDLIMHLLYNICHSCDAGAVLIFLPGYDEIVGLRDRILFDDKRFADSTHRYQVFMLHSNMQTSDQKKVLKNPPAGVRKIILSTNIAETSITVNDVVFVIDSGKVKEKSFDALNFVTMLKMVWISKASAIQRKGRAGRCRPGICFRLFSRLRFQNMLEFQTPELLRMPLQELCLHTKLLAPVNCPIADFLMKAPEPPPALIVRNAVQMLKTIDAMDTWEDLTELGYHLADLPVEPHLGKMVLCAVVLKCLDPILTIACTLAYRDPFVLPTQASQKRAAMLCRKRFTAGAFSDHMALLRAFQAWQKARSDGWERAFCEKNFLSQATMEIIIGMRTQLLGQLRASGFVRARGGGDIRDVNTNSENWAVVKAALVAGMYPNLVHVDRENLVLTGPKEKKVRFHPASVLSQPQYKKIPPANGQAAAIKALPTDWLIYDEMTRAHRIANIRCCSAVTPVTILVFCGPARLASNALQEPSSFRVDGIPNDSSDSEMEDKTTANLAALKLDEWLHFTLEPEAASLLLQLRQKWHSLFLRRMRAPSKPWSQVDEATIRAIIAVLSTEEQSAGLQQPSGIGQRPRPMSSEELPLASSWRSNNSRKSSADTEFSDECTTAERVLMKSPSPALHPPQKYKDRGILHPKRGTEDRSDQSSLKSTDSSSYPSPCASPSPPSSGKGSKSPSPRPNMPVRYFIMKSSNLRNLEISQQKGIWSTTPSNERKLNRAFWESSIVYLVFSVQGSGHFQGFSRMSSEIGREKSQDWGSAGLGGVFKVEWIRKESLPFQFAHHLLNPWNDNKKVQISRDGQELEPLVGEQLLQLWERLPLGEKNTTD
UniProt P17026: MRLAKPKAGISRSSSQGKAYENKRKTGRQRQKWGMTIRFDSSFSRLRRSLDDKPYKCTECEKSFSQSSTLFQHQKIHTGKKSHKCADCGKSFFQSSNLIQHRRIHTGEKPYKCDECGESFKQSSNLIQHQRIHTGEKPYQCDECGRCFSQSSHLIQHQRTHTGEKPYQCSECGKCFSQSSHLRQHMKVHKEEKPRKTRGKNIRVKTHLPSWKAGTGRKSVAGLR
UniProt P52739: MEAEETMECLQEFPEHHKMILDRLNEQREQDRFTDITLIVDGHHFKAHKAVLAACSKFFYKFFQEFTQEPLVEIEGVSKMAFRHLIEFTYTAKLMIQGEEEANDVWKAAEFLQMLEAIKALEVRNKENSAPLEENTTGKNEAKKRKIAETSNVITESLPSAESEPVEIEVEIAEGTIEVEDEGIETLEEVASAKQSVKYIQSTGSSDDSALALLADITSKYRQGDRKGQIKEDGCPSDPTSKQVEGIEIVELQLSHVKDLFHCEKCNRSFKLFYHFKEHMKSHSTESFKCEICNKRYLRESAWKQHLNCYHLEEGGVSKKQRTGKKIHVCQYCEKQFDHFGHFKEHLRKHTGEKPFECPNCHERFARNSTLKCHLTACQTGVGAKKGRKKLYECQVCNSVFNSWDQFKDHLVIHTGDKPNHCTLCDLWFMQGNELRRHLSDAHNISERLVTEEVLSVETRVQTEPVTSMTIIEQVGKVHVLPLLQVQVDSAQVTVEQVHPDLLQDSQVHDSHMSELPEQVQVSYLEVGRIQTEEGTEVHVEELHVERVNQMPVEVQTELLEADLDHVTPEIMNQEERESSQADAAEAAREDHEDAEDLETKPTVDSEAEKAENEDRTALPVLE

Tests used:
Experiment in all cases: log2 fold change, soluble protein after heating vs DMSO (PISA); higher = thermal stabilisation; K562 cells, 10 uM, 30 min; active = over 0.2 and 3.5 SD of the protein, either way, in both replicates (recomputed)
erlotinib = compound: C#Cc1cccc(Nc2ncnc3cc(OCCOC)c(OCCOC)cc23)c1 [erlotinib]
Procedure, shortened: (§1)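 Soluble protein was quantified by TMTpro 16plex LC-MS/MS after channel sums were equalised. It was obtained as the supernatant after 21,000xg for 90 min from pooled aliquots of K562 cells (2×10^6 cells/mL, 10 μM compound, 30 min) heated for 3 min across 48°C-58°C and extracted in PBS with 0.5% NP-40 at 4°C. Thermal stability values are relative to control samples and come from duplicates. They are given as log2 fold changes.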

[1] = compound: C1=CC(=CC=C1C2=NC3=C(N2)C=C(C=C3)C(=O)N)OC4=CC=C(C=C4)Cl
Procedure, shortened: as §1

[2] = compound: C1=CC2=NC=CN=C2C=C1/C=C/3\C(=O)NC(=O)S3
Procedure, shortened: as §1

[3] = compound: C1CCN(C1)C(=O)NC2=CC=CC(=C2)NC3=NC=C(C(=N3)NCCC4=CN=CN4)Br
Procedure, shortened: as §1

[4] = compound: C1CN(CCC1(CC2=CC=C(C=C2)Cl)N)C3=NC=NC4=C3C=CN4
Procedure, shortened: as §1

[5] = compound: C/C(=N\NC(=O)C1=CC(=CC=C1)S(=O)(=O)N2CCOCC2)/C3=C(C=CC(=C3)Cl)O
Procedure, shortened: as §1

[6] = compound: C1=CC(=C(C=C1Cl)C2=NC3=NC=CN=C3C(=N2)NC4=CC=NC=C4)F
Procedure, shortened: as §1

[7] = compound: C1=CC2=C(C=CC(=C2)/C=C\3/C(=O)NC(=NCC4=CC=CS4)S3)N=C1
Procedure, shortened: as §1

[8] = compound: C1=CC=C(C=C1)C2=NC(=C(N2)C3=CC=NC=C3)C4=CC(=C(C=C4)Cl)O
Procedure, shortened: as §1

[9] = compound: C1=CC=C2C(=C1)C3=NNC4=CC=CC(=C43)C2=O
Procedure, shortened: as §1

Measured: log2 fold change

YIPF1 (UniProt Q9Y548)
inactive: erlotinib 0.007 | [1] 0.018 | [2] 0 | [3] -0.024 | [4] -0.088

ZC3H11A (UniProt O75152)
inactive: [2] 0.095

YWHAZ (UniProt E7ESK7)
inactive: [5] -0.037 | [6] 0.099 | [7] -0.13 | [2] -0.01 | [8] -0.068 | [9] 0.008 | [3] -0.031 | [4] 0.07

ZDHHC2 (UniProt Q9UIJ5)
inactive: [2] 0.033 | [8] 0.006

YIPF2 (UniProt Q9BWQ6)
inactive: [6] -0.264 | [2] -0.048 | [8] -0.138 | [3] 0.071 | [4] 0.433

XRN1 (UniProt Q8IZH2)
inactive: [6] -0.297 | [2] -0.17 | [8] -0.015 | [3] -0.168 | [4] -0.052

ZKSCAN8 (UniProt Q15776)
inactive: [6] -0.186 | [8] -0.004 | [3] 0.004 | [4] -0.066

XYLT2 (UniProt Q9H1B5)
inactive: [6] -0.137

ZNF225 (UniProt Q9UK10)
inactive: [5] -0.461 | [7] 0.011 | [2] -0.032 | [9] 0

ZBTB14 (UniProt O43829)
inactive: erlotinib -0.031 | [1] 0.255 | [2] 0 | [8] -0.007 | [3] -0.016 | [4] -0.008

YBEY (UniProt P58557)
inactive: erlotinib 0.199 | [1] 0.11 | [8] 0.18

ZMYM2 (UniProt Q9UBW7)
inactive: [2] -0.078

ZBTB44 (UniProt Q8NCP5)
inactive: [5] 0.02 | [7] 0.011 | [9] -0.249

ZNF106 (UniProt Q9H2Y7)
inactive: [2] 0.058

ZFX isoform 3 (UniProt P17010)
inactive: [3] -0.086 | [4] -0.312

ZFC3H1 (UniProt O60293)
inactive: [5] -0.096 | [7] 0.214 | [2] 0.018 | [8] -0.086 | [9] -0.068

ZFHX4 isoform 5 (UniProt Q86UP3)
inactive: erlotinib 0 | [1] 0.173 | [3] -0.016 | [4] -0.074

XPA (UniProt P23025)
inactive: [5] 0.034 | [6] -0.014 | [7] 0.084 | [8] -0.12 | [9] -0.006 | [3] -0.174 | [4] -0.026

ZCRB1 (UniProt Q8TBF4)
inactive: erlotinib -0.059 | [1] 0.08

YTHDC2 (UniProt Q9H6S0)
inactive: [5] -0.117 | [6] -0.165 | [7] -0.091 | [9] 0.108

YBX1 (UniProt C9J5V9)
inactive: [5] 0.233 | [7] -0.002 | [9] -0.143

ZDHHC9 (UniProt Q9Y397)
inactive: [8] -0.085

ZNF22 (UniProt P17026)
inactive: erlotinib -0.326 | [1] 0.094 | [8] -0.1 | [3] 0.044 | [4] 0.071

ZNF131 (UniProt P52739)
inactive: [6] -0.212 | [2] -0.149 | [8] 0.355

ZFPM2 (UniProt Q8WW38)
inactive: [5] -0.046 | [7] 0.091 | [9] 0.115 | [3] 0.078 | [4] 0.053

ZFP36L2 (UniProt P47974)
inactive: erlotinib 0.143 | [1] -0.176

ZFAND1 (UniProt Q8TCF1)
inactive: erlotinib -0.102 | [1] -0.01 | [2] -0.006 | [8] 0.038 | [3] -0.251 | [4] 0.063

XP32 (UniProt Q5T750)
inactive: [5] 0.011 | [7] 0.147 | [2] -0.01 | [8] -0.274 | [9] -0.611

ZFYVE28 (UniProt Q9HCC9)
inactive: erlotinib 0.037 | [1] 0.008 | [2] -0.189

ZBED1 (UniProt O96006)
inactive: [5] 0.213 | [6] -0.015 | [7] 0.107 | [2] -0.007 | [9] -0.05 | [3] -0.003 | [4] -0.072

ZBTB17 isoform 2 (UniProt Q13105)
inactive: erlotinib -0.048 | [1] 0.03 | [2] 0.171 | [3] -0.014 | [4] -0.199

ZDHHC8 isoform 3 (UniProt Q9ULC8)
inactive: [6] 0.028 | [2] -0.002 | [3] 0.06 | [4] 0.063

ZBTB34 (UniProt Q8NCN2)
inactive: [5] -0.019 | [7] -0.078 | [9] -0.14

ZG16B (UniProt Q96DA0)
inactive: [5] 0.349 | [7] 0.085 | [2] -0.076 | [9] 0.535

ZBTB7B isoform 2 (UniProt O15156)
inactive: [3] -0.241 | [4] -0.505

Reprinted at random: 2 entries already listed.
ZBTB17 isoform 2 (UniProt Q13105)
inactive: erlotinib -0.048 | [1] 0.03 | [2] 0.171 | [3] -0.014 | [4] -0.199

ZBTB7B isoform 2 (UniProt O15156)
inactive: [3] -0.241 | [4] -0.505
